PubChem BioAssay AID504784, Drosophila RNAi Screening Center | 2011
Screen: 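Genome-wide knock-down for genes giving too much or too little stored lipid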 (primary screen). System: Drosophila Kc167 embryonic cells. Reagents: long dsRNA against Drosophila genes, about 250 ng dsRNA per well. Duration: 4 days. Conditions: cells fed 400 µM oleic acid bound to BSA. Detection: 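Microscope images give a droplet-to-nucleus area ratio, taken as log and converted to a screen-wide B-score; higher values mean greater lipid storage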. Scale: droplet/nuclear area B-score: higher = more stored lipid (overstorage).
The deposit covers about 17,000 reagents; below is a random part of those with a known target gene and a result. 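Each column is one replicate's B-score; the combined score over replicates was not deposited, so single values may mislead.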 The numbers tell different reagents against one gene apart. Names joined by + are all predicted targets of the reagent. No sequences are given here.

no.	gene	reagent no.	droplet/nuclear area B-score, replicate 1	droplet/nuclear area B-score, replicate 2	droplet/nuclear area B-score, replicate 3
1	unc-4	1	-1.32	0.928	0.247
2	unc-4	2	-0.0841	0.428	
3	CG34214	1	1.56	0.138	
4	trpl	1	2.25	-0.12	
5	trpl	2	3.92	2.98	-0.539
6	CG32640 + CG32641	1	0.744	-1.25	
7	Klp31E	1	0.127	-1.07	
8	Or33b	1	0.083	-0.0726	
9	CG7968	1	0.376	0.415	
10	IntS12	1	0.686	-0.125	
11	CG13623	1	4.84	6.33	
12	shg	1	-0.132	0.0825	
13	eIF4A	1	3.15	4.54	
14	Pkd2	1	0.404	0.161	
15	Faf2	1	-1.23	-0.308	
16	CG11109	1	-0.029	-1.16	-1.25
17	CG8209	1	-1.71	-0.0886	
18	CG10947	1	0.697	-1.5	
19	Or33c	1	1.02	-0.0621	
20	Gr22c	1	-0.916	-0.00265	
21	CG32473	1	0.286	-1.33	
22	CG32473	2	1.53	-1.8	
23	sens-2	1	-0.0465	0.09	
24	sens-2	2	0.424	0.349	
25	sens-2	3	-3.58	-3.19	
26	SppL	1	-0.481	1.31	
27	Obp56g	1	-0.265	0.222	
28	CG15484	1	-0.467	0.705	1.09
29	CG15484	2	-0.684	0.657	
30	CG9570	1	-0.0293	0.835	
31	LSm1	1	2.44	-3.14	
32	lectin-37Db	1	-1.51	-0.369	
33	fj	1	0.195	-0.596	
34	Rh3	1	0.549	0.382	
35	vri	1	-1.08	2.25	
36	vri	2	-1.04	-1.17	
37	Ugt317A1	1	-1.98	-0.207	
38	CG46491	1	-0.226	0.245	
39	CG46491	2	1.27	-0.776	

Laid out differently: entries from further up
gene,reagent no.,"droplet/nuclear area B-score, replicate 1","droplet/nuclear area B-score, replicate 2","droplet/nuclear area B-score, replicate 3"
Obp56g,1,-0.265,0.222,
CG15484,1,-0.467,0.705,1.09
CG15484,2,-0.684,0.657,
CG9570,1,-0.0293,0.835,
LSm1,1,2.44,-3.14,
lectin-37Db,1,-1.51,-0.369,
fj,1,0.195,-0.596,
Rh3,1,0.549,0.382,
vri,1,-1.08,2.25,
vri,2,-1.04,-1.17,
Ugt317A1,1,-1.98,-0.207,

More records follow:
no.	gene	reagent no.	droplet/nuclear area B-score, replicate 1	droplet/nuclear area B-score, replicate 2	droplet/nuclear area B-score, replicate 3
40	DZIP1	1	-1.66	-0.539	
41	CG6414	1		0.539	
42	Obp46a	1	-0.832	-0.0859	
43	Diap2	1	-0.886	1.2	
44	CG18789	1	-0.349	0.919	
45	Dysb	1	0.789	0.844	
46	Tsp42Ea	1	0.517	1.77	
47	Tsp42Ea	2	-0.281	0.552	
48	Slh	1	2.54	0.417	
49	Nmd3	1	2.75	0.806	
50	CG7840	1	0.317	0.106	
51	CG7196 (retired record)	1	-0.0745	1.78	
52	CG7196 (retired record)	2	-0.968	-1.89	
53	Hmx	1	0.982	1.69	
54	Hmx	2	0.061	1.01	
55	Hmx	3	-0.423	-1.97	
56	RpL27	1	4.08	3.55	
57	Vha100-4	1	0.246	0.528	
58	sprt	1	0.854	-0.124	
59	ana1	1	-0.578	-2.4	
60	ana1	2	1.85	-0.0308	
61	SecS	1	0.11	-0.611	
62	Vps20	1	-0.712	6.17	
63	List	1	0.588	-0.915	
64	Pink1	1	1.14	0.152	1.01
65	LysD + LysB + LysC (retired record)	1	-0.205	-1.09	
66	GCC185	1	-1.43	-0.274	
67	CG12576	1	-0.661	-1.39	
68	Rbp6	1	-0.00373	0.0472	
69	Rbp6	2	0.0934	-1	
70	Rbp6	3	-3.82	-0.808	
71	l(3)neo43	1	-0.788	-0.11	
72	psq	1	-4.27	-0.0531	
73	psq	2	0.63	0.588	
74	btv	1	0.0442		
75	btv	2	-0.586	-1.19	
76	Dhc1	1	-0.586	0.139	
77	seq	1	1.95	1.96	
78	Vps50	1	-0.271	-0.406	
79	Shab	1	1.44	2.82	
80	Shab	2	0.314	-0.0709	
81	Shab	3	0.115	-1.82	
82	Gr39a	1	1.05	-1.28	
83	Gr39a	2	-0.628	-0.0368	
